The text below walks through data of patent US6635623.

Protein sequences, listed by entry. Tags and fused reporters are not part of them. Chains listed by the source or under a name are the forms on record and can include a tag or linker.
UniProt P04114, other isoform, or with tags, fused parts or gaps: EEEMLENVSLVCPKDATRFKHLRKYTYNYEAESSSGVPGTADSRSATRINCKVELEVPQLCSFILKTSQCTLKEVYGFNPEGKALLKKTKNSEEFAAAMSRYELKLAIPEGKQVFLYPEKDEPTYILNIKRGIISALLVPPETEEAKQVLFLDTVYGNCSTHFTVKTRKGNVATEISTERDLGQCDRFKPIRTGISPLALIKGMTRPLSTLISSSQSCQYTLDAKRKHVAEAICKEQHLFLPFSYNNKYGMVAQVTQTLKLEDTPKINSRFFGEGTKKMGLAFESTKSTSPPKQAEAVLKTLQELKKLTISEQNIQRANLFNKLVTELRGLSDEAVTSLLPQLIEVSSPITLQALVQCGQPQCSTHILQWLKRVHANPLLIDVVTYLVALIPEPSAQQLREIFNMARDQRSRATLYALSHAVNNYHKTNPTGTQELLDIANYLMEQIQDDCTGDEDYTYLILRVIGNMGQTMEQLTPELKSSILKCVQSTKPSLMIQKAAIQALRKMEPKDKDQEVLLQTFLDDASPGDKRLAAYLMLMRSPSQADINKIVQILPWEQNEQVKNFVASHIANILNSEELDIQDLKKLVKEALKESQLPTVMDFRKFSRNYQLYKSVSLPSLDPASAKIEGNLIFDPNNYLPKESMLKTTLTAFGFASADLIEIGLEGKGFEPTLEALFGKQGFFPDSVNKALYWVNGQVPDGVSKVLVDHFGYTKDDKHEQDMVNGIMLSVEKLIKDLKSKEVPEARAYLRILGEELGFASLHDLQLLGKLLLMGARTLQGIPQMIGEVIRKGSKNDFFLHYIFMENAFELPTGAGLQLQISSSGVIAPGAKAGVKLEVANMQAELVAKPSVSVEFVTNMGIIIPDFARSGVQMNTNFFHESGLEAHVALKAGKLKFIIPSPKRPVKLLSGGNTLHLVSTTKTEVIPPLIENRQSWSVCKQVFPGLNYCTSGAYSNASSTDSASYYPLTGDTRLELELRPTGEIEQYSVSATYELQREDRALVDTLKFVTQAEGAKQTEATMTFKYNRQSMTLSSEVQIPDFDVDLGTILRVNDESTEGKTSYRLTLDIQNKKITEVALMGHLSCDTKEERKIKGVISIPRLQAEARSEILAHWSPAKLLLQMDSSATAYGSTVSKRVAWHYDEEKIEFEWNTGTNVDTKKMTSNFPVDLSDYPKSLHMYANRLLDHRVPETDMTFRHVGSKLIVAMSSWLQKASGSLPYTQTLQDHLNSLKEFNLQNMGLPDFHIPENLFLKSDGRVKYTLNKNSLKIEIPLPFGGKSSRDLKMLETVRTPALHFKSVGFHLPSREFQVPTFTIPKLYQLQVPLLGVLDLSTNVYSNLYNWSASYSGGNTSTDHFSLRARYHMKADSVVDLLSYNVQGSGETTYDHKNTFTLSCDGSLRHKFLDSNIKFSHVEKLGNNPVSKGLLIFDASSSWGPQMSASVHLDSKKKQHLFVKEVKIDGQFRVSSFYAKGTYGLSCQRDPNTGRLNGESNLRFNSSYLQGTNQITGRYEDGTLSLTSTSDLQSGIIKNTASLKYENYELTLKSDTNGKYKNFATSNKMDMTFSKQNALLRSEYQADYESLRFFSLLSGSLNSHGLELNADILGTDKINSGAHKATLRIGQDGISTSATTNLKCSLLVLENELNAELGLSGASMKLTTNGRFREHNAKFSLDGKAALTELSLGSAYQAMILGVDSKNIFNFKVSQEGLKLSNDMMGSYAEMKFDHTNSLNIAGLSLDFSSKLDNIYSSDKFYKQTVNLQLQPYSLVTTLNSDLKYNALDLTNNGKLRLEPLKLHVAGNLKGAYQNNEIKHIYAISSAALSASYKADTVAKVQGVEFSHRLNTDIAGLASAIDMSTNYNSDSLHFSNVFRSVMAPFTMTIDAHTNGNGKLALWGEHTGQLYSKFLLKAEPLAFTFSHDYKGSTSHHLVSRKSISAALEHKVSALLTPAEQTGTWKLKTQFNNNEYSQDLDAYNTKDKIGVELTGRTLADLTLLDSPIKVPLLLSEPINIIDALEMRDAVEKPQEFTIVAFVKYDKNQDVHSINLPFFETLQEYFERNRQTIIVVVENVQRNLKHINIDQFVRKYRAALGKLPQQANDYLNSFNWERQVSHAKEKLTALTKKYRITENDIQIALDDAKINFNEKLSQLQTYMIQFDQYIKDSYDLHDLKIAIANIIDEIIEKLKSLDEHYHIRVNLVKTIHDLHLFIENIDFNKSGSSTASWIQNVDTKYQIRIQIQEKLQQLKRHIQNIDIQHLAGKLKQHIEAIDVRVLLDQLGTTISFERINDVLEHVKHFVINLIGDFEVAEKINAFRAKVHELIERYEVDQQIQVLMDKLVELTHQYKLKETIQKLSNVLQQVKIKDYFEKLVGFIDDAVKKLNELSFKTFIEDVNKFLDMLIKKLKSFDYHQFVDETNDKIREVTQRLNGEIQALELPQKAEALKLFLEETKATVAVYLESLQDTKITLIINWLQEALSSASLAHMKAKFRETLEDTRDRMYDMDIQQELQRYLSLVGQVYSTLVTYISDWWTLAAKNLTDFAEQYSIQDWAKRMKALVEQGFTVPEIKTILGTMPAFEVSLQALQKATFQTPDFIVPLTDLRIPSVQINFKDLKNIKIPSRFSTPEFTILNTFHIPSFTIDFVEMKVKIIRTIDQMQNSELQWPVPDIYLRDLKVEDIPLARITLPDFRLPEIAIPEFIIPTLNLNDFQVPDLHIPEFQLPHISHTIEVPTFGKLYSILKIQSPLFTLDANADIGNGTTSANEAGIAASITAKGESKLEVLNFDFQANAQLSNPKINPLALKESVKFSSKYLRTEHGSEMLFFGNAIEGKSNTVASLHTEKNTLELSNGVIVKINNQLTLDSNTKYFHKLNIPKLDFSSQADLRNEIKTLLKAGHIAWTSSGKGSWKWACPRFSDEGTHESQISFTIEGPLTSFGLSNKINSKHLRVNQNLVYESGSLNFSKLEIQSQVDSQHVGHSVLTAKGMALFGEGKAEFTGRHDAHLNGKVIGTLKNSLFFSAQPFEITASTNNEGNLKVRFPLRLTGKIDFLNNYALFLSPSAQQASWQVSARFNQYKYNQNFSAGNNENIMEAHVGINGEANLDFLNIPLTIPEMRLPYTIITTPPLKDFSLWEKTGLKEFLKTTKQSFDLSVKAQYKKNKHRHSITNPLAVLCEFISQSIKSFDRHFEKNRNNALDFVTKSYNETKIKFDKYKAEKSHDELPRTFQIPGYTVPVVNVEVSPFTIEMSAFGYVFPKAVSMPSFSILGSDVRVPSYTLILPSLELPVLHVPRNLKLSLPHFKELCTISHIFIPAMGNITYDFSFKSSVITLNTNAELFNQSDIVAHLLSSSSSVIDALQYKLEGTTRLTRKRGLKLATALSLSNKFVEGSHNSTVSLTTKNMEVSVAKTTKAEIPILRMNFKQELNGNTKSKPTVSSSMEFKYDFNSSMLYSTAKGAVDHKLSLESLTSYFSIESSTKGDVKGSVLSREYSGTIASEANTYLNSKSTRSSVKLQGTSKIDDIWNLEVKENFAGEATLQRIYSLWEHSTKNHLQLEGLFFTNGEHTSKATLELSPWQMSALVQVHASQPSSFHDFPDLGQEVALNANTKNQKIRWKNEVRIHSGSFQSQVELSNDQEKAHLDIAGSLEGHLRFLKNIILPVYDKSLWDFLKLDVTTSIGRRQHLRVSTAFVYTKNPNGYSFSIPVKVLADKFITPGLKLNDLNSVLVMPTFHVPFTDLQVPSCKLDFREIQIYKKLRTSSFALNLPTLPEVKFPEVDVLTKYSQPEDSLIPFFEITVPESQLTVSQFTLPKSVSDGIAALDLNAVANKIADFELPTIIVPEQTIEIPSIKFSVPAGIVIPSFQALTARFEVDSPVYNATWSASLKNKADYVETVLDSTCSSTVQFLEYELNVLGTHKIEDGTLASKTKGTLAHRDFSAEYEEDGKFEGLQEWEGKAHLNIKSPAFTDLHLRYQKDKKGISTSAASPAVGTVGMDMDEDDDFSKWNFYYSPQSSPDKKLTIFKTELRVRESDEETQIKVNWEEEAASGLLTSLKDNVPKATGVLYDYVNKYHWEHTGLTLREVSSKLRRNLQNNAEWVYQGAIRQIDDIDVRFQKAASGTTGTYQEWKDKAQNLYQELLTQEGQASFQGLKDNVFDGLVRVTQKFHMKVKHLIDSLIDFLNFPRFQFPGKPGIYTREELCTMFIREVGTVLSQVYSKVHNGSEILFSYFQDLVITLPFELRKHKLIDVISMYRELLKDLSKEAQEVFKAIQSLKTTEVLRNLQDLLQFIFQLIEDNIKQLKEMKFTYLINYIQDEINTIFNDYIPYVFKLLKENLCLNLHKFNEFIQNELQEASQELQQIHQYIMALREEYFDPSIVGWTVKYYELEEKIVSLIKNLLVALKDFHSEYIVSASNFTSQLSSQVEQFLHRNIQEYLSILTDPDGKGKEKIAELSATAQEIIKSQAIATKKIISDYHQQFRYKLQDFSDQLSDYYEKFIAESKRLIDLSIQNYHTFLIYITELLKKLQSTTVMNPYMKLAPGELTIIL

For at least one entry, the source does not settle the construct or the ends of the probe. For part of these data: A negative result means that nothing was seen under these conditions. For part of these data: Weaker means in comparison with the reference protein, sequence or condition of that experiment.

What all share (assay): EMSA
Series [1] deals with HDL (Homo sapiens). The following applies: HDL did not bind any oligo tested; purified native protein; protein details: plasma lipoprotein particle without apoB-100.
The subject of series [2] is LDL (baboon). The following applies: 15 mM MgCl2; purified native protein; protein details: plasma lipoprotein particle.
In series [3] the test system is VLDL (Homo sapiens). The following applies: purified native protein, protein details: plasma lipoprotein particle containing apoB-100.
The subject of series [4] is LDL (Mus musculus). The following applies: 15 mM MgCl2; purified native protein; protein details: plasma lipoprotein particle.
Series [5] concerns the target LDL (apoB-100-containing) (Homo sapiens) (UniProt P04114). The settings on record: purified native protein.

As for “GATCCAAATCACCCACTGCAACTCCTCCCCCTGCG (double strand) [SRE-2A]”, the binding result in series [1] is reported as “no binding”; in series [2] it was “no binding”; in series [3] (lower affinity than LDL), “binds more weakly”; in series [4] it was “no binding”; in series [5] (agarose gel shift, Tris pH 7.4, 100-154 mM NaCl, 15 mM MgCl2, RT) it was “binds”.
Turning to “GATCCATCCAATTGGGCAATCAGGAG (double strand) [E/C-1A]”, the binding result in series [1] is “no binding”; in series [2], “no binding”; in series [3] (lower affinity than LDL) it was “binds more weakly”; in series [4], “no binding”; in series [5] (agarose gel shift, 15 mM MgCl2) it was “binds”.
For the sequence “GATCCGGTCTCCAATTGG (double strand) [FAS-1A]”, the binding result in series [1] is listed as “no binding”; in series [2], “no binding”; in series [3] (lower affinity than LDL), “binds more weakly”; in series [4], “no binding”; in series [5] (agarose gel shift, 15 mM MgCl2), “binds”.
In the case of “GATCCTCGGGAAAGGGAAACCGAAACTGAAGCCG (double strand) [ISRE-1A]”, the binding result in series [1] is “no binding”; in series [3] (lower affinity than LDL), “binds more weakly”; in series [4], “no binding”; in series [5] (agarose gel shift, 15 mM MgCl2), “binds”.
As to “GGATCTGACGGTTCACTAAACCAGCTCTGCTTATATAGACCTCCCACCGTACACGCCTACCGCCCATTTGCGTCAATGGGGCGGAGTTGTTACGACATTTTGGAAAGTCCCGTTGATTTTGGTGCCAAAACAAACTCCATTGACGTCAATGGGGTGGAGACTTGGAAATCCCCGTGAGTCAAACCGCTATCCACGCCCATTGATGTACTGCCAAAACCGCATCACCATGGTAATAGCGATGACTAATACGTAGATGTACTGCCAAGTAGGAAAGTCCCATAAGGTCATGTACTGGGCATAATGCCAGGCGGGCCATTTACCGTCATTGACGTCAATAGGGGGCGTACTTGGCATATGATACACTTGATGTACTGCCAAGTGGGCAGTTTACCGTAAATACTCCACCCATTGACGTCAATGGAAAGTCCCTATTGGCGTTACTATGGGAACATACGTCATTATTGACGTCAATGGGCGGGGGTCGTTGGGCGGTCAGCCAGGCGGGCCATTTACCGTAAGTTATGTAACGCGGAACTCCATATATGGGCTATGAACTAATGACCCCGTAATTGATTACTATTAATAACTA (double strand) [HCMV IE promoter region]”, the binding result in series [3] and in series [5] (greater affinity than for plasmid lacking the promoter) was “binds” in each case.
